Data published in patent publication US11819556B2, “Stabilized compositions of radionuclides and uses thereof” (RayzeBio, Inc., priority 2021, dated 2023).
At least one structure is not confirmed: it was looked up by name or label, or the drawing left a doubt.

Conditions: 48 hours after mixing; 0.03 mCi/ml, excipient 1 mg/ml in sodium acetate-acetic acid buffer pH 5.80, 25° C.

NC(N)=S [Thiourea]
Percentage of ^225Ac present in [^225Ac]Ac-DOTA-TATE: 89.97%
